SMILES strings stand for the structures. The list shows a part of the results. Further columns of the screen follow, without active or inactive calls. Compounds called inactive in the main read-out are mostly missing here. The note in brackets gives the kind of curve behind each potency; many fits are weak.

This note sets out measurements from PubChem BioAssay AID493014 (National Center for Advancing Translational Sciences (NCATS), 2011).

This assay can be described thus: qHTS Assay to Find Inhibitors of Chronic Active B-Cell Receptor Signaling. The following applies: ABC-DLBCL IkBa-CBG/CBR reporter, luminescence ratio (green luciferase fused to IkBa over red control in TMD8 lymphoma cells), 4 h. The essentials:
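TMD8 ABC-DLBCL cells carrying doxycycline-inducible green luciferase fused to IkappaBalpha plus unfused red luciferase were exposed to compounds (up to 46 uM) for 4 hrs at 37C. Activity came from the overlap-corrected green/red luminescence ratio.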
On the technique in general: In qHTS, concentration-response curves come from the screen itself.

[1] abbreviates: measured here: CBR red luminescence, cell number.
Setting [2] is: measured here: IkBa-CBG green luminescence.

As usually defined, the AC50 is the concentration at which the activity in the assay is half-maximal. As for `Cc1cc2n(n1)C(c1ccccc1Cl)Nc1ccccc1-2` (stereo unspecified), the concentration at half-maximal activity (AC50) under setting [1] was 9.2 µM [rising, partial curve, poor fit]. As to `Cc1[nH]n(-c2ccc(Br)cc2)c(=O)c1/C=N/NC(=O)c1ccccc1`, under setting [1], the AC50 is 4.47 µM [falling, partial curve]. Consider `O=C(NCCCC1CCCC1)C1CCC(=O)N(Cc2ccc(Cl)cc2)C1` (stereo unspecified), for which, under setting [1], the half-maximal activity concentration (AC50) is 11.2 µM [falling, partial curve, poor fit]. Consider `CN(C)C(=O)CCc1ccc2c3c([nH]c2c1)[C@]1(C)[C@@H](C(=O)N2CCOCC2)C[C@H](CC(=O)NCc2cccc(C(F)(F)F)c2)C(=O)N1CC3`, for which the AC50 reads like this: under setting [1], 18.4 µM [rising, single point]; under setting [2], 32.6 µM [falling, single point]. `O=C(NC1CCCC1)c1cc(Nc2cccc(C(F)(F)F)c2)nc2ccccc12`: the AC50 under setting [1] was 0.562 µM [falling, full curve, poor fit]. With `CS(=O)(=O)N(C(=O)NC(=O)NC1CCS(=O)(=O)C1)C1CCCCC1` (stereo unspecified), the AC50 under setting [1] is 5.01 µM [falling, single point]. `CCOc1ccc2oc(=O)cc(C)c2c1`: the AC50 was 0.326 µM [falling, full curve, poor fit] under setting [1] and 4.11 µM [rising, partial curve, poor fit] under setting [2]. Take `Cc1cccc(NC(=O)Nc2cc(C)cc(C)n2)c1`: the half-maximal activity concentration (AC50) under setting [1] is 3.16 µM [rising, single point]. Same read-out and setting: to `CCOC(=O)C1CCCN(S(=O)(=O)CCNC(=O)c2ccc3c(c2)OCO3)C1` (stereo unspecified) belongs 16.4 µM [rising, partial curve, poor fit]. The same measure, in the same setting: to `Cc1ccc(C(=O)C2=C(O)C(=O)N(CCCN3CCOCC3)C23C(=O)N(C)c2ccccc23)o1` (stereo unspecified) belongs 35.5 µM [rising, single point]; to `Cc1ccc(C(=O)N2CCN(c3ccc(NC(=O)c4ccc(Br)o4)cc3)CC2)cc1`, 0.411 µM [falling, full curve, poor fit]; to `Cn1c(CN2CCCCC2)nc2cc(NC(=O)c3ccccc3Cl)ccc21`, 7.94 µM [falling, partial curve, poor fit].

As for `Cc1ccc(C(CC(=O)NCc2ccco2)c2ccc(OC(C)C)cc2)cc1` (stereo unspecified), the AC50 was 35.5 µM [falling, partial curve, poor fit] under setting [1] and 12.6 µM [rising, partial curve, poor fit] under setting [2]. With `CCOc1ccccc1NC(=S)NCC1CCCO1` (stereo unspecified), the concentration at half-maximal activity (AC50) under setting [1] was 25.9 µM [falling, partial curve, poor fit].

Regarding `CC[C@]12c3[nH]c4ccccc4c3CCN1C(=O)C(CC(=O)NCCC1=CCCCC1)C[C@@H]2C(=O)N1CCN(C(=O)c2ccco2)CC1` (stereo partly specified), the concentration at half-maximal activity (AC50) under setting [1] was 16.4 µM [falling, partial curve]. `Cc1cc(C(=O)COC(=O)/C=C/c2ccc(F)cc2)c(C)n1C`: under setting [1], the AC50 is 16.4 µM [rising, single point].

Regarding `Cc1cccc(NC2=C(Cl)C(=O)OC2OC(=O)c2ccco2)c1` (stereo unspecified), the concentration at half-maximal activity (AC50) under setting [1] is 6.31 µM [falling, full curve, poor fit].

Consider `CCC(C)c1ccc(NC(=O)c2cccs2)cc1` (stereo unspecified), for which the concentration at half-maximal activity (AC50) under setting [1] was 18.4 µM [falling, single point]. As for `O=C(COC(=O)c1ccc(Cl)cc1O)Nc1cccnc1Cl`, the concentration at half-maximal activity (AC50) under setting [1] is 29.1 µM [falling, single point].

Turning to `Cc1cc(Nc2ccc(Cl)cc2)nc(NCc2ccccc2)n1`, the concentration at half-maximal activity (AC50) under setting [1] was 6.51 µM [rising, partial curve, poor fit]. Turning to `Cc1ccc(CCNC(=O)c2ccc3c(c2)N(Cc2cccc(Cl)c2)C(=O)c2ccccc2S3(=O)=O)cc1`, the AC50 under setting [1] was 6.31 µM [rising, partial curve, poor fit].

`CN=c1scc(C)n1/N=C/c1ccc2c(c1)OCO2`: the AC50 under setting [1] was 29.1 µM [falling, single point]. As for `CCOC(=O)c1sc(NC(=S)NC(=O)c2ccccc2)nc1C`, under setting [1], the half-maximal activity concentration (AC50) is 3.55 µM [falling, full curve]. Consider `COc1cccc(C2CC(c3ccccc3OC)n3nc(N)nc3N2)c1` (stereo unspecified), for which, under setting [1], the AC50 was 20 µM [rising, partial curve, poor fit].

On to `O=C(O)C1CC(=O)N(c2ccc(OCc3ccccc3Cl)cc2)C1` (stereo unspecified), for which the AC50 under setting [1] was 8.2 µM [falling, partial curve].

For the compound `CCN(CC(=O)Nc1cc(Cl)ccc1Cl)C(=O)c1ccc(-n2cccn2)cc1`, the AC50 under setting [1] is 11.6 µM [rising, partial curve]. Take `CCOc1ccc(C(=O)NC(=S)Nc2ccccc2N2CCC(C)CC2)cc1[N+](=O)[O-]`: the half-maximal activity concentration (AC50) under setting [1] was 35.5 µM [rising, single point]. As for `Cc1cc(C)c2nc(SCCC#N)nc(C)c2c1`, under setting [1], the AC50 was 1 µM [rising, full curve, poor fit].

Take `O=C(c1cc2cc(Cl)ccc2[nH]1)N1CCN(c2ccc(F)cc2)CC1`: under setting [1], the AC50 was 22.4 µM [rising, single point].

As to `COCCN(C(=O)Cc1cccs1)C(C(=O)NC1CCCC1)c1ccc(OC)c(OC)c1` (stereo unspecified), the AC50 under setting [1] was 35.5 µM [rising, partial curve, poor fit]. With `OCCCNc1nc(-c2ccccc2)nc2c1oc1ccccc12`, under setting [1], the AC50 was 8.91 µM [falling, partial curve, poor fit].

With `CCC(C)NC(=O)CN(C)S(=O)(=O)c1ccc2c(c1)c(=O)n(C)c(=O)n2C` (stereo unspecified), the half-maximal activity concentration (AC50) under setting [1] is 25.9 µM [rising, partial curve, poor fit]. Take `C#CCOCCOCCOCCNc1nc(N2CCN(C(=O)CCCCCCCCCCNC(=O)Cn3cc(CCCCCN)nn3)CC2)nc(N2CCN(C(=O)CCCCCCCCCCNC(=O)[C@@H](CCSC)n3cc(CCO)nn3)CC2)n1`: the half-maximal activity concentration (AC50) runs as follows: under setting [1], 29.1 µM [rising, single point]; under setting [2], 29.1 µM [falling, partial curve, poor fit]. As to `Cc1ccc(Cl)cc1NC(=S)N(Cc1ccco1)C(C)c1cccs1` (stereo unspecified), the AC50 under setting [1] was 17.8 µM [falling, partial curve]. As to `CCOCCN(C(=O)COC)c1cccc(OC)c1`, the concentration at half-maximal activity (AC50) under setting [1] is 12.6 µM [rising, partial curve]. As to `COc1ccc(CN(C)C(=O)CCCNC(=O)c2ccc(Cl)cc2)cc1`, the AC50 under setting [1] is 4.47 µM [rising, single point]. Same read-out and setting: the same measure for `CCCCCCc1ccc(O)cc1O`: 20.6 µM [rising, single point]; for `Cc1ccc(NC(=O)Cn2ncc(Cl)c(Cl)c2=O)cc1S(=O)(=O)N1CCCCC1`: 5.8 µM [falling, partial curve]; for `O=C(Cc1cccs1)OCC(=O)c1ccco1`: 5.62 µM [rising, partial curve, poor fit]. As for `CCN1CCN(CCNC(=O)c2ccc3c(c2)N(Cc2ccc(F)cc2)C(=O)/C(=C/c2ccccc2)S3)CC1`, the AC50 under setting [1] is 7.08 µM [falling, partial curve]. For the compound `Cc1ccc(N(C(=O)CS(=O)CC(=O)Nc2ccc(F)cc2)C(C(=O)NC2CCCCC2)c2ccco2)cc1` (stereo unspecified), the AC50 under setting [1] was 2.06 µM [falling, single point]. In the case of `Cc1noc(NS(=O)(=O)c2ccc(NC(=O)CSc3nnc(-c4ccccc4)n3C3CCCCC3)cc2)c1C`, the half-maximal activity concentration (AC50) under setting [1] is 1.84 µM [falling, partial curve, poor fit].

As for `COc1ccc(/C=N\NC(=O)c2c(C)nc3ccc(Br)cn23)cc1`, the AC50 is, setting by setting: under setting [1], 9.2 µM [rising, partial curve]; under setting [2], 10.3 µM [falling, partial curve]. `O=C(O)c1ccc(-c2nnc(-c3ccccc3)o2)cc1`: the concentration at half-maximal activity (AC50) under setting [1] was 7.94 µM [falling, partial curve, poor fit]. As for `COc1cccc(CNC(=O)Cn2cc([N+](=O)[O-])cn2)c1`, under setting [1], the AC50 is 35.5 µM [rising, single point].

For `Cc1cccc(C)c1OCC(=O)Nn1c(COc2ccccc2)nc2ccccc2c1=O`, the half-maximal activity concentration (AC50) under setting [1] is 5.8 µM [falling, partial curve]. `O=C(Nc1ccncc1)c1cn(-c2ccccc2)nc1-c1cccs1`: the AC50 reads like this: under setting [1], 10.3 µM [falling, single point]; under setting [2], 16.4 µM [falling, partial curve, poor fit]. On to `CCOc1ccccc1NC(=O)NCCc1c[nH]c2ccccc12`, for which the half-maximal activity concentration (AC50) under setting [1] was 3.55 µM [falling, partial curve, poor fit]. On the same count and under the same terms, the same measure for `COc1ccc(NC(=O)NCCN2CCCCC2)cc1`: 3.98 µM [rising, single point]; for `N#CC(C#N)C(c1ccsc1)c1c(-c2ccccc2)[nH][nH]c1=O` (stereo unspecified): 29.1 µM [falling, single point]; for `Cc1ccc(-n2cccc2/C=C2\C(=N)N3N=C(c4ccco4)SC3=NC2=O)cc1`: 2.82 µM [falling, full curve]. Take `COc1ccc(CCNC(=O)C(=O)NCC(c2cccs2)S(=O)(=O)c2ccc(C)cc2)cc1` (stereo unspecified): under setting [1], the AC50 was 0.1 µM [rising, full curve, poor fit]. Consider `O=C(CNC(=O)c1ccc(Cl)c([N+](=O)[O-])c1)OC1CCCCC1=O` (stereo unspecified), for which the half-maximal activity concentration (AC50) under setting [1] was 29.1 µM [falling, single point]. For the compound `CN(C)C=Nc1nc2ccccc2nc1N1CCCC1`, the AC50 under setting [1] is 20 µM [falling, single point]. For `Cc1ccc2nc(NS(=O)(=O)c3cn(C)nc3C)sc2c1`, the half-maximal activity concentration (AC50) by setting is: under setting [1], 3.16 µM [rising, single point]; under setting [2], 5.62 µM [falling, single point]. With `COc1ccc(C(=O)Nc2cccc(C)c2)cc1`, the AC50 under setting [1] is 4.47 µM [falling, partial curve]. For `C=CCN(c1nc(C)c(Br)c(OC)n1)S(=O)(=O)c1ccc(C)cc1`, under setting [1], the AC50 was 35.5 µM [rising, single point]. As to `COc1cc2c(cc1NC(=S)Nc1cccc3ccccc13)oc1ccccc12`, the AC50 under setting [1] is 0.651 µM [falling, full curve, poor fit].

Consider `O=C(Nc1ccc(F)cc1)N1CCN(c2ncccn2)CC1`, for which the half-maximal activity concentration (AC50) under setting [1] was 11.2 µM [falling, single point].
